Test results published in paper PMC9887672, “Predicting human cardiac QT alterations and pro-arrhythmic effects of compounds with a 3D beating heart-on-chip platform” (Toxicological Sciences, 2022).
Entries after “also recorded” stand apart in the source; their conditions may differ.

Tested on: uHeart 3D cardiac microtissues (h-iPSC-CMs and dermal fibroblasts in fibrin)
Assay: Drug screening on uHeart: field potential recording (FPDcF, BP, AMP, arrhythmic events, beating cessation)

COC(=O)C1=C(C)NC(C)=C(C(=O)OC)C1c1ccccc1[N+](=O)[O-] [Nifedipine]
uHearts that ceased beating over uHearts tested: 1 over 3
[%FPDcF] >LOW, drug concentration (concentration causing FPDcF change by 10% vs baseline): 0.001 µM
[%FPDcF] >MID, drug concentration (concentration causing FPDcF change by 15% vs baseline): 0.005 µM
[%FPDcF]>HIGH, drug concentration (concentration causing FPDcF change by 20% vs baseline): 0.01 µM
Effect on spike amplitude AMP (in words) (incremental doses): decreased the AMP
Effect on FPDcF (in words) (incremental doses, change vs baseline): concentration-dependent shortening of the FPDcF; also recorded: tendency to shorten the FPDcF passing the HIGH threshold already at medium dosages
TdP risk category proposed from uHeart score (score vs ratio effective concentration/fETPC, Figure 6D): low-risk
